Assay results from PMC4836378 (Journal of medicinal chemistry, 2016).

How the values were obtained:
[1] = tested on: RARs in HepG2 cells; test: Induction of RARβ and CYP26A1 mRNA in HepG2 cells; type: cell-based, human
[2] = tested on: atRA metabolism in HepG2 cells; conditions: HepG2, 100 nM atRA + 1 μM compound versus 100 nM atRA alone, 24 hour

CC1(C)CCC(C)(C)c2cc(C3(c4ccc(CCC(=O)O)cc4)SCCS3)ccc21 [Compound 30, 3-{4-[2-(5,5,8,8-Tetramethyl-5,6,7,8-tetrahydronaphthalen-2-yl)-1,3-dithiolan-2-yl]phenyl}propanoic acid]
Activation of RARs (induction of CYP26A1 and RARβ mRNA) [1]: none of the three compounds resulted in activation | Magnitude of induction of RARβ and CYP26A1 mRNA compared to atRA treatment alone [1]: significantly increased | Increase in atRA concentration in the media [2]: approximately 9 fold
